Measured values: patent US20210300939A1, “Single Molecule Compounds Providing Multi-Target Inhibition of BTK and Other Proteins and Methods of Use Thereof” (SignalRx Pharmaceuticals, Inc., priority 2018, published 2021)
At least one compound was matched to its structure with a doubt left.

System: pAKT(S473) in JeKo and Mino cells
Assay: Western blot, phosphorylation of AKT at Ser 473 in anti-IgM stimulated cells
Format: cell-based, human
Conditions: FIGS. 2A-2D
Method: Phosphorylation of BTK at Tyr223 and AKT at Ser 473 were determined by Western blot analysis. The results are shown in FIGS. 2A-2B (JeKo cells) and FIGS. 2C-2D (Mino cells). Blots were reprobed for total BTK, AKT, and β-actin.

C=CC(=O)N1CCC[C@@H](n2nc(-c3ccc(Oc4ccccc4)cc3)c3c(N)ncnc32)C1 [Ibrutinib]
Suppression of pAKT (Ser 473): only shows suppression of pBTK
